Reference: patent US20240124714A1, “NEAR INFRARED DYES FOR BIOLOGICAL IMAGING AND OPTOELECTRONIC DEVICES” (Mississippi State University, priority 2022, published 2024)

Experiment: Integrated photoacoustic signal versus dye concentration, limit of detection
Assay type: physicochemical
Conditions: in ethanol
Experimental: The Limits Of Detection (LOD) was determined to be 0.36 μM according to the following equation (LOD=3×blank×SD of slope/(1-slope)^2. Photoacoustic A imaging was performed on an iThera Medical MSOT inVision 128 tomographer. Next, it was established that there was a linear relationship between dye concentration and the PA signal up to the highest concentration tested (2.0 μM) and a limit of detection of 0.36 μM in ethanol (FIG. 3D).

CCOC(=O)c1ccccc1C1=c2cc/c(=C3/C=CC(=[N+]4CCCCC4)S3)cc2Oc2cc(-c3ccc(N4CCCCC4)s3)ccc21.[Cl-] [XanthCR-880, 1-{5-[(3E)-9-[2-(Ethoxycarbonyl)phenyl]-6-[5-(piperidin-1-yl)thiophen-2-yl]-3H-xanthen-3-ylidene]-2,5-dihydrothiophen-2-ylidene}-1λ5-piperidin-1-ylium chloride]
limit of detection (LOD) of photoacoustic signal: 0.36 µM
linear relationship between dye concentration and PA signal, up to highest concentration tested: ≤ 2.0 µM
